The supplement of paper PMC10849652
This is one part of the list.

The chains behind the UniProt entries cited, without tags or fusion partners. Where a name states a change or a piece, a line headed by the entry shows the natural chain unless it says otherwise.
UniProt P30039: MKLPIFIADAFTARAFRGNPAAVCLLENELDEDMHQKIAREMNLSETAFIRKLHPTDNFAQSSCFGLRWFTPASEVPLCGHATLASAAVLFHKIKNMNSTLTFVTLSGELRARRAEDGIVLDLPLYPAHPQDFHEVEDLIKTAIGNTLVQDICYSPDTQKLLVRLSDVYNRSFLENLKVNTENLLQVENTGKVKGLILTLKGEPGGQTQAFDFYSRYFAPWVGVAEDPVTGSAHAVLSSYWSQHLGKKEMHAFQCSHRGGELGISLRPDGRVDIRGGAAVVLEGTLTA
UniProt O96011, whole entry, looked up, stated change not applied: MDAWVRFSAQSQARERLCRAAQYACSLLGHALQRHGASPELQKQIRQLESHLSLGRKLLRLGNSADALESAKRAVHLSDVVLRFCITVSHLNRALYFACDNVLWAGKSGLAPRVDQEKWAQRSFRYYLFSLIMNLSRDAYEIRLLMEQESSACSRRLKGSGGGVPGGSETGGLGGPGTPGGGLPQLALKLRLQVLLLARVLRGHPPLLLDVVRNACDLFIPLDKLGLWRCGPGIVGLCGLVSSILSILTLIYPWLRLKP
UniProt Q15121, whole entry, looked up: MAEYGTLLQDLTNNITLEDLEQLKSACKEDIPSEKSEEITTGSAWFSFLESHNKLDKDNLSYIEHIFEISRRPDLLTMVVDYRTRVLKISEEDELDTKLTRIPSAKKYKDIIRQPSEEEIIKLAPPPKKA
UniProt Q96KB5: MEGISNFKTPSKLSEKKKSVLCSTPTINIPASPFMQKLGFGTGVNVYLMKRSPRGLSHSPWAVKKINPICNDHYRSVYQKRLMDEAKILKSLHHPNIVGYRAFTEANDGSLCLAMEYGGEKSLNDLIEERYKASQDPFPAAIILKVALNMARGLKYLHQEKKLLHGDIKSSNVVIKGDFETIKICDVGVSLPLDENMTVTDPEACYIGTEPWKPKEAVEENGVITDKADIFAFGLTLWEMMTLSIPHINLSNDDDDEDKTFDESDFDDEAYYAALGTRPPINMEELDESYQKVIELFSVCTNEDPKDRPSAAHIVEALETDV
UniProt Q86W56: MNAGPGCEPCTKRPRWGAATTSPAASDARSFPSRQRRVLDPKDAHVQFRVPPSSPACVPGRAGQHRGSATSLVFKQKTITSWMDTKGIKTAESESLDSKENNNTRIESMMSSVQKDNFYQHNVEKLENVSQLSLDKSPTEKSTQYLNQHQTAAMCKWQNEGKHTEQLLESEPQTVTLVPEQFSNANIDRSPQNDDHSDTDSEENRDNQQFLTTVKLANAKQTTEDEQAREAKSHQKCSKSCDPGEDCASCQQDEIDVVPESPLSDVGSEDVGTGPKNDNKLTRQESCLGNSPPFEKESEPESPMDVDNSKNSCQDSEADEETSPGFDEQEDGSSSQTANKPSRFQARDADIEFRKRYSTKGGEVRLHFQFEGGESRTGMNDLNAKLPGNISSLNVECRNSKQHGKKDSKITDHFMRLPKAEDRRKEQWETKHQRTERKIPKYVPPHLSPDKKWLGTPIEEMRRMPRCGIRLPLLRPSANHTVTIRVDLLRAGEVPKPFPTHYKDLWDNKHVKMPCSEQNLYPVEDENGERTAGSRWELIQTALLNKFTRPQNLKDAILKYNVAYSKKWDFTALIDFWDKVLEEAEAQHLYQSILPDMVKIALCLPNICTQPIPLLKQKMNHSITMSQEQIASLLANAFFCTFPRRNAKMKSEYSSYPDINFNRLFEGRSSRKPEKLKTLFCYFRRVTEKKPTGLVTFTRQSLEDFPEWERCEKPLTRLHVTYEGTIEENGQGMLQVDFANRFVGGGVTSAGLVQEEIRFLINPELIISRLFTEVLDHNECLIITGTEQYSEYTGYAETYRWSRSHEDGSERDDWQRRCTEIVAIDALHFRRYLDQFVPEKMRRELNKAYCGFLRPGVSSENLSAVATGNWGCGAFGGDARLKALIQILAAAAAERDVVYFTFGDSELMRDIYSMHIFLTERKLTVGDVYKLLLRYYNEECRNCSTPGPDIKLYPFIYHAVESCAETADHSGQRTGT
UniProt Q86YH6: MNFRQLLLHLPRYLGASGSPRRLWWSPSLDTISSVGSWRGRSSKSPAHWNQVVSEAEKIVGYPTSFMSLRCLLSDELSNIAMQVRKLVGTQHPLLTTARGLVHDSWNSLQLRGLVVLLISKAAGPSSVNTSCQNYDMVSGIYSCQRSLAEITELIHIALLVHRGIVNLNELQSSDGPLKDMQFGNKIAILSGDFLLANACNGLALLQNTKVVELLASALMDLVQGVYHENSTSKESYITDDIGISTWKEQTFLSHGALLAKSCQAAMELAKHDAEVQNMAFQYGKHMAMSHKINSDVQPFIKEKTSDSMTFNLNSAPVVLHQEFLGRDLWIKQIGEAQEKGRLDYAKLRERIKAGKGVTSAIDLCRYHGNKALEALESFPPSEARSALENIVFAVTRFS
UniProt Q13153, whole entry, looked up: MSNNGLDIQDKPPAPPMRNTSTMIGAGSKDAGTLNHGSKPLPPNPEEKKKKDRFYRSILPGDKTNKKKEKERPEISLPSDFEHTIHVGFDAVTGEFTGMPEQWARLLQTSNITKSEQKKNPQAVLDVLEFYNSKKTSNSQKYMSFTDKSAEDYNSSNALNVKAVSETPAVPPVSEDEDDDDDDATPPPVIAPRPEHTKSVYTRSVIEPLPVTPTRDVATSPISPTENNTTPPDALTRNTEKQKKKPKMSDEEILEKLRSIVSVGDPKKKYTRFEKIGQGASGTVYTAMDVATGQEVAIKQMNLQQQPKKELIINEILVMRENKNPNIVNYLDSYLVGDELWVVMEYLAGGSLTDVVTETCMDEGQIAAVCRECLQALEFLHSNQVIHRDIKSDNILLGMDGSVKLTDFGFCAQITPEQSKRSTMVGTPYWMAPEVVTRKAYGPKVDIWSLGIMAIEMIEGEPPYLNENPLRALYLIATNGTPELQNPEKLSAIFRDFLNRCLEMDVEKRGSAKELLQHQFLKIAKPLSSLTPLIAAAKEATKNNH
UniProt O60829: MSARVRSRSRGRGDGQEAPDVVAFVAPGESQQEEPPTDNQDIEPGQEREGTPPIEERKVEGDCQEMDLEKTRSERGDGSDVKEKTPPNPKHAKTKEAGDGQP
UniProt O96013: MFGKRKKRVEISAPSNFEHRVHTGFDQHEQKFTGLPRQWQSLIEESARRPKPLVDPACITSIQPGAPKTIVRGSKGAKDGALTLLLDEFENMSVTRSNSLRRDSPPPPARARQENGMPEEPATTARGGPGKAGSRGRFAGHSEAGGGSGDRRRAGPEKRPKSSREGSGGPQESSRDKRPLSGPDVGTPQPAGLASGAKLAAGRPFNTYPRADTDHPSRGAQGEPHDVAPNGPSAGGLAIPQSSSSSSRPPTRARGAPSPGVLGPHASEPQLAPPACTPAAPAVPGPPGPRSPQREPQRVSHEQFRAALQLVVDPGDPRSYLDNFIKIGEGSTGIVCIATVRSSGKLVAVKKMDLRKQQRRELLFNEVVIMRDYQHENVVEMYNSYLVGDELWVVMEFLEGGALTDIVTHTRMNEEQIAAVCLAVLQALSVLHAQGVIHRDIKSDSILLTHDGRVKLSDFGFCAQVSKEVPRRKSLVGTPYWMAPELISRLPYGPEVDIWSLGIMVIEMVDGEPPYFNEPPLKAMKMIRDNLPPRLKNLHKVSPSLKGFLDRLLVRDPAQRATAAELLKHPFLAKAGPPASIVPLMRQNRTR
UniProt Q8TEW0: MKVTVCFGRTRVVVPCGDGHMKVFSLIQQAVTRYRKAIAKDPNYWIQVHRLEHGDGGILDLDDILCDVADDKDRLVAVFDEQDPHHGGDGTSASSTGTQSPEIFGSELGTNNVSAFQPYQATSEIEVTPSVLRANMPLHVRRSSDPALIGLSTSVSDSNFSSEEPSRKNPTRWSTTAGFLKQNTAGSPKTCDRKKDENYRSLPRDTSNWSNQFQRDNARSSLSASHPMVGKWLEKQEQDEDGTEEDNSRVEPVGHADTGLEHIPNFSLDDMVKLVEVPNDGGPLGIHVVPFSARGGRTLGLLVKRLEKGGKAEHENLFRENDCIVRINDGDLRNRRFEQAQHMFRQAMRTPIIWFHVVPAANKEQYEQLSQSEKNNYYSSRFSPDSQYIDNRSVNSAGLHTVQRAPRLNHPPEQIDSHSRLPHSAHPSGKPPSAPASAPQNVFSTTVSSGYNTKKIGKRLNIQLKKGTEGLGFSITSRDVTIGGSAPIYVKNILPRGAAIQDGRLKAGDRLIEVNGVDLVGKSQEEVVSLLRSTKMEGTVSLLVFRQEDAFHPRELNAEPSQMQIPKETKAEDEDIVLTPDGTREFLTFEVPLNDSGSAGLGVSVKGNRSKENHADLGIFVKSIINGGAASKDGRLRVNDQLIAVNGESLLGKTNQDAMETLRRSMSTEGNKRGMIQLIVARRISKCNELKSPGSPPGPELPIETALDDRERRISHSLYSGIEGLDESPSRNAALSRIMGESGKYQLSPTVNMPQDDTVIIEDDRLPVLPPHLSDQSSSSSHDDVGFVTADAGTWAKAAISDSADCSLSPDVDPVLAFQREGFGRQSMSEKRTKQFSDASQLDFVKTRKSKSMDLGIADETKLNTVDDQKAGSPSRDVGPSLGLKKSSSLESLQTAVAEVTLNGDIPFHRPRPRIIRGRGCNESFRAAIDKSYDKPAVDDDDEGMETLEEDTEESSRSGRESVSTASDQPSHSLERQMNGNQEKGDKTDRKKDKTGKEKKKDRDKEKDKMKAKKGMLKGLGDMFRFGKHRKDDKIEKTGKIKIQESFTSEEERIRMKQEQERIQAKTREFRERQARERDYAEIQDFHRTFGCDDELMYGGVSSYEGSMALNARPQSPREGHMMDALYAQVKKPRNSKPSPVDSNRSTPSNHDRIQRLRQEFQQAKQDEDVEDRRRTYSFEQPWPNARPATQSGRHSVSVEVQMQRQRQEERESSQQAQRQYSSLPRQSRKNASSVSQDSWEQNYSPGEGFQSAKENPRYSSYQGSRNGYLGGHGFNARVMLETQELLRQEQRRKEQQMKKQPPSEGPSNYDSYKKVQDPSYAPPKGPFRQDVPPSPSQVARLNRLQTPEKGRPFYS
UniProt Q5JVF3: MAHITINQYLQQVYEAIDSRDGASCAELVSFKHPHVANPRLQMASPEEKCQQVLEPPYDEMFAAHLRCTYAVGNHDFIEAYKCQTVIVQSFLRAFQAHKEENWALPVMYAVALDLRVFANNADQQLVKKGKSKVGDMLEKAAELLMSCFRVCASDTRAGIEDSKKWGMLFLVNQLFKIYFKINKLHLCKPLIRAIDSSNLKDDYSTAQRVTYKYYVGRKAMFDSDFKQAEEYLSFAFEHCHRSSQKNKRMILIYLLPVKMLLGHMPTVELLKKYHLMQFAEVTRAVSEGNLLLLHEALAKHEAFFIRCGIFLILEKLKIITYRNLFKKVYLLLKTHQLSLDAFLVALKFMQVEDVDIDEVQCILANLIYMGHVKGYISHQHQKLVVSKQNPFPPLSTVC
UniProt Q9BRP1: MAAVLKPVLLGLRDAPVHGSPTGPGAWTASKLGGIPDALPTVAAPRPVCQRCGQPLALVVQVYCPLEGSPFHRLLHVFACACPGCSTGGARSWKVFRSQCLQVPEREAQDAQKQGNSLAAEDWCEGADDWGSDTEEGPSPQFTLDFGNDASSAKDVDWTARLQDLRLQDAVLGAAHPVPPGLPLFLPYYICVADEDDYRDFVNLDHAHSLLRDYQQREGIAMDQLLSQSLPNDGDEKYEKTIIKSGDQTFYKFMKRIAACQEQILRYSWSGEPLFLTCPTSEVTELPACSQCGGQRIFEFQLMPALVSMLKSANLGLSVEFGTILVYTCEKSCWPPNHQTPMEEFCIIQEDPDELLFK
UniProt P51160: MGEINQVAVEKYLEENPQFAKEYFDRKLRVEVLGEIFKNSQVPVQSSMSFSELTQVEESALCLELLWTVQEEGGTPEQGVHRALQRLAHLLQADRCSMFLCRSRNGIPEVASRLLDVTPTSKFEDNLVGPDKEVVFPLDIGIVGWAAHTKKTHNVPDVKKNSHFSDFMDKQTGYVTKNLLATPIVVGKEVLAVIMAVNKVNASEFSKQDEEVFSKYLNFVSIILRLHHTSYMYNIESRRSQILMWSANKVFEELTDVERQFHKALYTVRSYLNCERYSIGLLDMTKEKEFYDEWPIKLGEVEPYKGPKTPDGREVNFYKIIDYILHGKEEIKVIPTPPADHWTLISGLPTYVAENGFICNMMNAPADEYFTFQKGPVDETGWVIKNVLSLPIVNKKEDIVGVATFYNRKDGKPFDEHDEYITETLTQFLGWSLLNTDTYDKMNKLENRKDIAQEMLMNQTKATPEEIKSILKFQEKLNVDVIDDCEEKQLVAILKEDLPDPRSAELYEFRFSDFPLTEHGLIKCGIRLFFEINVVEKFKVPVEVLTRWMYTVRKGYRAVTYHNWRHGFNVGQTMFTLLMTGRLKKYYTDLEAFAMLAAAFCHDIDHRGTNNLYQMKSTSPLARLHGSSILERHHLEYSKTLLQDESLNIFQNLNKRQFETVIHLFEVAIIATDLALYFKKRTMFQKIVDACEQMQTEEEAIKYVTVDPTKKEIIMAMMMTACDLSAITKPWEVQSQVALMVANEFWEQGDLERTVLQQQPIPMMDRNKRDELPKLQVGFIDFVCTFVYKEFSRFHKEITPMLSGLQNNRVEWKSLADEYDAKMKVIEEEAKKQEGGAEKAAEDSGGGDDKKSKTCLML

What was measured:
Assay in all cases: log2 fold change, soluble protein after heating vs DMSO (PISA); higher = thermal stabilisation; K562 cells, 10 uM, 30 min; active = over 0.2 and 3.5 SD of the protein, either way, in both replicates (recomputed)
[1] = compound: CC[C@@H]1C(=O)N(C)c2cnc(Nc3ccc(C(=O)NC4CCN(C)CC4)cc3OC)nc2N1C1CCCC1
In short: (§1)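 Soluble protein was defined as the supernatant after 21,000xg for 90 min. It came from K562 cells at 2×10^6 cells/mL given 10 μM compound for 30 min, heated in aliquots for 3 min across 48°C-58°C, pooled, and extracted in PBS with 0.5% NP-40 at 4°C, and was quantified by TMTpro 16plex LC-MS/MS with equalised channel sums. Thermal stability against control samples, from duplicates, is reported as log2 fold change.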

[2] = compound: CC[C@@H]1C(=O)N(C)c2cnc(Nc3ccc(C(=O)N[C@H]4CC[C@H](N5CCN(CC6CC6)CC5)CC4)cc3OC)nc2N1C(C)C [volasertib]
In short: as §1

[3] = compound: CC[C@H](C)N1C=C(C2=C(C=C(C=C21)C3=CN=C(C=C3)N4CCNCC4)C(=O)NCC5=C(C=C(NC5=O)C)C)C
In short: as §1

[4] = compound: CC[C@H](C)[C@@H](C(=O)N[C@@H]([C@@H](C)O)C(=O)N[C@@H](CC(C)C)C(=O)[C@]1(CO1)C)NC(=O)[C@H]([C@@H](C)CC)N(C)C(=O)C [epoxomicin]
In short: as §1

[5] = compound: CCn1c(C(=O)N(C2CC2)C2CC2)cc2c3c(ncn3C)c(Nc3cc(C)n(C)n3)nc21
In short: as §1

[6] = compound: CCn1cc(-c2ccnc3[nH]c(-c4cccc(CN(C)C)c4)cc23)c(-c2ccc(NC(=O)N(C)C)cc2)n1
In short: as §1

[7] = compound: CN(C)CC(=O)Nc1ccc2[nH]c(=O)c3ccccc3c2c1
In short: as §1

[8] = compound: CN(CCOC1=CC=C(C=C1)C[C@H]2C(=O)NC(=O)S2)C3=CC=CC=N3 (racemic) [rosiglitazone]
In short: as §1

[9] = compound: CN1C2=C(C3=C1C(=O)N(N=C3)CC4=CC(=CC=C4)N)SC(=C2)S(=O)C
In short: as §1

[10] = compound: CN1CCC(CNc2ccc3ncc(-c4cccc(OC(F)(F)F)c4)n3n2)CC1
In short: as §1

Measured: log2 fold change

PAFAH1B1 (UniProt P43034)
inactive: [1] 0.012 | [2] 0.023 | [3] -0.035 | [4] -0.032 | [5] 0.016 | [6] -0.015 | [7] 0 | [8] 0.006 | [9] -0.063 | [10] -0.01

PDE12 (UniProt Q6L8Q7)
inactive: [1] -0.035 | [2] -0.056 | [3] -0.008 | [4] 0.04 | [6] -0.038 | [7] 0.026 | [9] -0.078 | [10] -0.014

PBLD (UniProt P30039)
inactive: [1] 0.03 | [2] 0.02 | [3] 0.006 | [4] 0.014 | [5] -0.02 | [7] 0.009 | [8] -0.026 | [9] -0.086

PEX11B (UniProt O96011)
inactive: [1] 0.071 | [2] -0.018 | [3] -0.038 | [4] -0.013 | [6] 0.04 | [7] 0.064 | [9] -0.085 | [10] 0.239

PARP16 isoform 3 (UniProt Q8N5Y8)
active: [6] -0.252
inactive: [1] 0.103 | [2] -0.025 | [3] 0.067 | [4] 0.029 | [7] 0.061 | [9] -0.008 | [10] 0.096

PDCD11 (UniProt Q14690)
inactive: [1] 0.029 | [2] -0.393 | [3] 0.003 | [4] -0.144 | [5] -0.13 | [6] -0.066 | [7] -0.045 | [8] 0.199 | [9] 0.244 | [10] -0.009

PEA15 isoform 2 (UniProt Q15121)
inactive: [1] -0.078 | [2] -0.162 | [3] -0.018 | [4] 0 | [6] 0.022 | [7] 0.004 | [9] -0.002 | [10] 0.039

PCYOX1L (UniProt Q8NBM8)
inactive: [1] -0.051 | [2] 0.037 | [3] -0.03 | [4] -0.029 | [5] -0.005 | [6] -0.022 | [7] -0.027 | [8] 0.003 | [9] -0.052 | [10] 0.117

PELP1 (UniProt Q8IZL8)
inactive: [1] 0.056 | [2] 0.017 | [3] -0.002 | [4] -0.004 | [6] 0.047 | [7] -0.009 | [9] 0.006 | [10] 0.021

PACS1 (UniProt Q6VY07)
inactive: [1] 0 | [2] -0.03 | [3] 0.208 | [4] -0.045 | [6] -0.006 | [7] 0.006 | [9] 0.029 | [10] 0.014

PBK (UniProt Q96KB5)
inactive: [1] -0.18 | [3] 0.121 | [4] -0.005 | [6] -0.026 | [7] 0.091 | [9] 0.053 | [10] -0.187
active: [2] -0.601

PDIA4, A0A499FI48
inactive: [1] -0.009 | [2] -0.045 | [6] 0.164 | [7] 0.057 | [9] 0.112 | [10] 0.155

PDPK1 (UniProt O15530)
inactive: [1] -0.136 | [2] -0.232 | [3] 0.034 | [4] 0.055 | [6] -0.05 | [7] 0.034 | [9] -0.008 | [10] -0.275

PARG (UniProt Q86W56)
inactive: [1] 0.036 | [2] -0.025 | [3] 0.059 | [4] 0.004 | [6] -0.016 | [7] 0.09 | [9] 0.005 | [10] -0.126

PAICS (UniProt D6RF62)
inactive: [1] -0.035 | [2] 0.026 | [6] 0.25 | [9] -0.102 | [10] -0.839

PARN (UniProt O95453)
active: [2] -0.401
inactive: [1] -0.146 | [3] 0.059 | [4] 0.051 | [6] -0.076 | [7] 0.017 | [9] -0.057 | [10] -0.196

PDIK1L (UniProt Q8N165)
inactive: [1] 0.123 | [2] 0.108 | [3] -0.056 | [4] -0.128 | [7] -0.028 | [9] 0.02

PDSS2 (UniProt Q86YH6)
inactive: [1] 0.021 | [2] 0.016 | [3] 0.12 | [4] 0.024 | [6] -0.069 | [7] 0.05 | [9] 0.02 | [10] 0.018

PCNX1 (UniProt Q96RV3)
inactive: [1] 0.331 | [2] 0.132 | [3] -0.004 | [4] -0.017 | [7] -0.064

PAK1 isoform 2 (UniProt Q13153)
inactive: [1] 0.032 | [2] -0.022 | [3] -0.024 | [4] 0.046 | [6] -0.122 | [7] 0.064 | [9] -0.062 | [10] -0.031

PCBP2 (UniProt F8VRH0)
inactive: [1] -0.005 | [2] -0.051 | [3] 0.165 | [4] -0.252 | [6] -0.201 | [7] 0.139 | [9] -0.306 | [10] -0.149

PCTP (UniProt Q9UKL6)
active: [10] -0.279
inactive: [1] -0.017 | [2] -0.012 | [3] -0.067 | [4] 0.039 | [6] -0.055 | [7] -0.005 | [9] -0.011

PECAM1 (UniProt P16284)
inactive: [1] 0.116 | [2] 0.061 | [3] -0.019 | [4] -0.027 | [6] -0.106 | [7] 0.027 | [9] -0.067 | [10] 0.168

PAFAH1B2 (UniProt P68402)
inactive: [1] 0.002 | [2] 0.064 | [3] 0.036 | [4] 0.102 | [6] -0.087 | [7] -0.009 | [9] -0.037 | [10] -0.016

PAGE4 (UniProt O60829)
inactive: [1] -0.029 | [3] 0.203 | [4] 0.208 | [5] 0.037 | [6] 0.055 | [7] -0.059 | [8] -0.067 | [10] -0.441

PARP1 (UniProt P09874)
active: [2] -0.57
inactive: [1] -0.233 | [3] 0.162 | [4] 0.1 | [6] 0.302 | [9] 0.027 | [10] -0.146

PAK4 (UniProt O96013)
inactive: [1] -0.026 | [2] -0.088 | [3] -0.026 | [4] -0.017 | [6] -0.059 | [7] -0.012 | [9] 0.049 | [10] -0.083

PARD3 (UniProt Q8TEW0)
inactive: [1] 0.1 | [2] 0.066 | [6] 0.023 | [10] 0.143

PCID2 (UniProt Q5JVF3)
inactive: [1] -0.032 | [2] 0.016 | [3] 0.072 | [4] 0.027 | [6] 0.035 | [7] -0.021 | [9] 0.055 | [10] -0.086

PDCD2L (UniProt Q9BRP1)
inactive: [1] -0.201 | [3] 0.017 | [4] 0.07 | [6] -0.171 | [7] 0.038 | [9] -0.038 | [10] -0.073
active: [2] -0.435

PATL1 (UniProt Q86TB9)
inactive: [1] 0.109 | [2] 0.013 | [4] -0.041 | [6] 0.051 | [7] 0.007 | [9] 0.104
active: [10] -0.445

Two records picked at random from those above, as already listed:
PDIK1L (UniProt Q8N165)
inactive: [1] 0.123 | [2] 0.108 | [3] -0.056 | [4] -0.128 | [7] -0.028 | [9] 0.02

PELP1 (UniProt Q8IZL8)
inactive: [1] 0.056 | [2] 0.017 | [3] -0.002 | [4] -0.004 | [6] 0.047 | [7] -0.009 | [9] 0.006 | [10] 0.021

(continued)

PDS5B (UniProt Q9NTI5)
inactive: [1] -0.004 | [2] 0.024 | [3] 0.12 | [4] 0.105 | [6] 0.103 | [7] 0.079 | [9] 0.131 | [10] -0.41

PDE6C (UniProt P51160)
inactive: [1] 0.029 | [2] 0.012 | [3] -0.234 | [7] -0.014 | [8] 0.109 | [9] -0.011
